Binding data for 1 substance are collected here from article PMC7062894.

Amino acid sequences for entries named in this document (tags omitted).
UniProt Q9NT62: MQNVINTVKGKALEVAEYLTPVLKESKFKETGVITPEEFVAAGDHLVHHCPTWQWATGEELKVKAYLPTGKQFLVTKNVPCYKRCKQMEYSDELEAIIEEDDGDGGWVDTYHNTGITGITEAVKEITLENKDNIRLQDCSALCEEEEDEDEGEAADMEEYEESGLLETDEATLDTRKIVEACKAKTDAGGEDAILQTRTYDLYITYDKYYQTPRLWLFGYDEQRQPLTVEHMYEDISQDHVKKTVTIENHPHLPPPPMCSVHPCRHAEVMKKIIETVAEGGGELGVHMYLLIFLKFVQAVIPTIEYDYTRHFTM

In test [1] the target is T1, Purified human TNFAIP8-His-tagged protein (Sino Biological) (human) (UniProt O95379).
T1 sequence: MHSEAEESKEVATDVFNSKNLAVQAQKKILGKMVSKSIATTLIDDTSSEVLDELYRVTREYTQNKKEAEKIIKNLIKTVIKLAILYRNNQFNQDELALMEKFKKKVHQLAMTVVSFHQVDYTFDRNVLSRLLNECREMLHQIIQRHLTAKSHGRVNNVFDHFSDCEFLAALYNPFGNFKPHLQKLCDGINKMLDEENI
The test is described as follows: pull-down; HepG2 cell lysates (1 mg) incubated with pure TNFAIP8 protein (2 µg) for 3 h; TNFAIP8 pulled down with TNFAIP8 antibody or control IgG; SDS-PAGE and Western blot; only the target purified. A general note: In western blotting, separated proteins are transferred to a membrane and probed.

Test [2] has as its target T2, TNFAIP8-Myc-DDK-tagged protein (human TNFAIP8, transcript variant 1) expressed in HepG2 cells (human) (UniProt O95379).
T2 sequence: T1 sequence
The test is described as follows: co-IP; extracts (1 mg, RIPA buffer) of HepG2 cells transfected with EV or TNFAIP8-Myc plasmid; forward and reverse IP (anti-Myc or ATG7 antibody, 4 °C overnight, protein AG-agarose beads), Western blot.

Results are given in words; binding and its absence hold for the method and conditions named. Binding seen in cells or lysates may run through a third protein. Some binding calls cover weakened binding; strength is not graded here. Sequences can lack the tags named with a protein.

As for “Autophagy-related protein 3 (ATG3), endogenous in HepG2 cells (from UniProt Q9NT62 1-314)”, the binding entry in test [1] and in test [2] was “binds” throughout.
